By UniProt entry, the sequences of proteins in these tests, tags left out. Residues count along the entry.
UniProt Q9NZI8, 194-369 K294D/E295D: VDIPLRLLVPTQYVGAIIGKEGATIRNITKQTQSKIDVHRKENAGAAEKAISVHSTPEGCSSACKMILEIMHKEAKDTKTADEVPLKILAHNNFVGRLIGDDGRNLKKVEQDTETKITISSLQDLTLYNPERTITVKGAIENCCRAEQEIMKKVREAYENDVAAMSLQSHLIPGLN
UniProt Q9NZI8, 194-369 K213D/E214D: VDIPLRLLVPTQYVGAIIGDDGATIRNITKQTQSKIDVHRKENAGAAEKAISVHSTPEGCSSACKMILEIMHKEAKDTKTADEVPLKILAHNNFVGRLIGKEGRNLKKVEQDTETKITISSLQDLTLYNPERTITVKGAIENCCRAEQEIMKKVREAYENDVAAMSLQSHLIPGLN

In publication PMC6486635:

How the values were obtained:
[1] = biological target: IMP1 KH1KH2DD K294D,E295D (Homo sapiens) (UniProt Q9NZI8); experiment: ITC; settings: 10 mM sodium phosphate pH 7.4, 50 mM NaCl, ITC 25 C with 2 mM TCEP, RNAsin 40-100 u/ml, recombinant protein, residues 194-369, protein details: 6xHis-GST removed by TEV
[2] = biological target: IMP1 KH1DDKH2 K213D,E214D (Homo sapiens) (UniProt Q9NZI8); experiment: NMR; settings: fast exchange; 10 mM sodium phosphate pH 7.4, 50 mM NaCl; NMR 0.5 mM TCEP; RNAsin 40-100 u/ml; recombinant protein; residues 194-369; protein details: 6xHis-GST removed by …
[3] = biological target: IMP1 KH1DDKH2 K213D,E214D (Homo sapiens) (UniProt Q9NZI8); experiment: ITC; settings: 10 mM sodium phosphate pH 7.4, 50 mM NaCl; ITC 25 C with 2 mM TCEP; RNAsin 40-100 u/ml; recombinant protein; residues 194-369; protein details: 6xHis-GST removed by TEV

| Sequence | Kd [3] [µM] | further results |
| --- | --- | --- |
| UCCAU |  | Kd [1]: 28 µM |
| UCCCG |  | binding result [2]: binds more weakly |
| UCCUU |  | Kd [1]: > 200 µM |
| UCGGU |  | Kd ([1]; RNA may self-pair): 14 µM |
| UUACG | 114 |  |
| UUCAG | > 200 |  |
| UUCGG | > 200 |  |
| UUCUG | > 200 |  |
| UUGCG | 90 |  |
| UUUCG | 104 |  |

For some of these results: Weaker means in comparison with the reference protein, sequence or condition of that experiment. For some of these results: For at least one entry, the source does not settle the construct or the ends of the probe.
